Assay results published in article PMC6416337.
No constants are given. Whether binding was seen depends on the method and setting. Binding calls can cover weak binding; strength is not graded here. Tags and fused reporters may be left off the sequences shown.

Biological target: GST-SOS2-JD (the junction domain) (Arabidopsis)
Experiment: pull-down; GST-tagged SOS2-JD on beads, with or without prior incubation with His-tagged PKS5 in kinase buffer with ATP (30 °C, 30 min; PKS5 washed away), then His-tagged 14-3-3λ in binding buffer (2 mM DTT, 10 mM MgCl2, 20 mM Tris-HCl pH 7.2) at 4 °C for 3 h; anti-14-3-3 immunoblot; both purified

B1: His-tagged 14-3-3λ (protein, UniProt P48349 1-248)
chain: MAATLGRDQYVYMAKLAEQAERYEEMVQFMEQLVTGATPAEELTVEERNLLSVAYKNVIGSLRAAWRIVSSIEQKEESRKNDEHVSLVKDYRSKVESELSSVCSGILKLLDSHLIPSAGASESKVFYLKMKGDYHRYMAEFKSGDERKTAAEDTMLAYKAAQDIAAADMAPTHPIRLGLALNFSVFYYEILNSSDKACNMAKQAFEEAIAELDTLGEESYKDSTLIMQLLRDNLTLWTSDMQEQMDEA
binding: binds
